{
  "source": "the supplement of paper PMC8728848",
  "assay_in_all_cases": "glycan array binding signal (z-score within array); higher = stronger binding",
  "details_in_all_cases": "glycan notation: IUPAC condensed, linker removed",
  "key": {"[1]": {"target": "Fuc(a1-3)[Gal(b1-4)]GlcNAc(b1-3)Gal(b1-3)[Fuc(a1-4)]GlcNAc", "in_short": "(§1)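 Columns mapping to the same glycan were averaged after glycan names were converted to IUPAC-condensed notation. The data come from 3228 arrays in the Consortium for Functional Glycomics database, limited to those with an available protein sequence. Binding is reported as a within-array Z-score averaged across arrays of one protein sequence and across linkers.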"}, "[2]": {"target": "Fuc(a1-3)[Gal(b1-4)]GlcNAc(b1-3)Gal(b1-4)[Fuc(a1-3)]GlcNAc", "in_short": "as §1"}, "[3]": {"target": "Fuc(a1-3)[Gal(b1-4)]GlcNAc(b1-3)Gal(b1-4)[Fuc(a1-3)]GlcNAc(b1-3)Gal(b1-4)[Fuc(a1-3)]GlcNAc", "in_short": "as §1"}, "[4]": {"target": "Fuc(a1-3)[Gal(b1-4)]GlcNAc(b1-3)GalNAc", "in_short": "as §1"}, "[5]": {"target": "Fuc(a1-3)[Gal(b1-4)]GlcNAc(b1-6)GalNAc", "in_short": "as §1"}, "[6]": {"target": "Fuc(a1-3)[Gal(b1-4)]GlcNAc(b1-6)[Gal(b1-3)GlcNAc(b1-3)]Gal(b1-4)Glc", "in_short": "as §1"}, "[7]": {"target": "Fuc(a1-3)[Gal(b1-4)]GlcNAc6S", "in_short": "as §1"}, "[8]": {"target": "Fuc(a1-3)[Gal3S(b1-4)]Glc", "in_short": "as §1"}, "[9]": {"target": "Fuc(a1-3)[Gal3S(b1-4)]GlcNAc", "in_short": "as §1"}, "[10]": {"target": "Fuc(a1-3)[Gal3S(b1-4)]GlcNAc6S", "in_short": "as §1"}, "[11]": {"target": "Fuc(a1-3)[GalNAc(b1-4)]GlcNAc", "in_short": "as §1"}, "[12]": {"target": "Fuc(a1-3)[GalNAc(b1-4)]GlcNAc6S", "in_short": "as §1"}, "[13]": {"target": "Fuc(a1-4)GlcNAc", "in_short": "as §1"}, "[14]": {"target": "Fuc(b1-3)GlcNAc", "in_short": "as §1"}, "[15]": {"target": "Gal(a1-2)Gal", "in_short": "as §1"}, "[16]": {"target": "Gal(a1-3)Gal", "in_short": "as §1"}, "[17]": {"target": "Gal(a1-3)Gal(b1-3)GlcNAc", "in_short": "as §1"}, "[18]": {"target": "Gal(a1-3)Gal(b1-3)GlcNAc(b1-2)Man", "in_short": "as §1"}, "[19]": {"target": "Gal(a1-3)Gal(b1-3)GlcNAc(b1-2)Man(a1-3)[Gal(a1-3)Gal(b1-3)GlcNAc(b1-2)Man(a1-6)]Man(b1-4)GlcNAc(b1-4)GlcNAc", "in_short": "as §1"}, "[20]": {"target": "Gal(a1-3)Gal(b1-3)GlcNAc(b1-3)GalNAc", "in_short": "as §1"}, "[21]": {"target": "Gal(a1-3)Gal(b1-3)GlcNAc(b1-6)GalNAc", "in_short": "as §1"}, "[22]": {"target": "Gal(a1-3)Gal(b1-3)[Fuc(a1-4)]GlcNAc(b1-2)Man(a1-3)[Gal(a1-3)Gal(b1-3)[Fuc(a1-4)]GlcNAc(b1-2)Man(a1-6)]Man(b1-4)GlcNAc(b1-4)GlcNAc", "in_short": "as §1"}, "[23]": {"target": "Gal(a1-3)Gal(b1-4)Glc", "in_short": "as §1"}, "[24]": {"target": "Gal(a1-3)Gal(b1-4)GlcNAc", "in_short": "as §1"}, "[25]": {"target": "Gal(a1-3)Gal(b1-4)GlcNAc(b1-2)Man", "in_short": "as §1"}, "[26]": {"target": "Gal(a1-3)Gal(b1-4)GlcNAc(b1-2)Man(a1-3)[Gal(a1-3)Gal(b1-4)GlcNAc(b1-2)Man(a1-6)]Man(b1-4)GlcNAc(b1-4)GlcNAc", "in_short": "as §1"}, "[27]": {"target": "Gal(a1-3)Gal(b1-4)GlcNAc(b1-3)GalNAc", "in_short": "as §1"}, "[28]": {"target": "Gal(a1-3)Gal(b1-4)GlcNAc(b1-6)GalNAc", "in_short": "as §1"}, "[29]": {"target": "Gal(a1-3)Gal(b1-4)[Fuc(a1-3)]GlcNAc", "in_short": "as §1"}, "[30]": {"target": "Gal(a1-3)Gal(b1-4)[Fuc(a1-3)]GlcNAc(b1-2)Man(a1-3)[Gal(a1-3)Gal(b1-4)[Fuc(a1-3)]GlcNAc(b1-2)Man(a1-6)]Man(b1-4)GlcNAc(b1-4)GlcNAc", "in_short": "as §1"}, "[31]": {"target": "Gal(a1-3)GalNAc", "in_short": "as §1"}, "[32]": {"target": "Gal(a1-3)[Gal(a1-4)]Gal(b1-4)GlcNAc", "in_short": "as §1"}, "[33]": {"target": "Gal(a1-4)Gal(b1-3)GlcNAc(b1-2)Man(a1-3)[Gal(a1-4)Gal(b1-3)GlcNAc(b1-2)Man(a1-6)]Man(b1-4)GlcNAc(b1-4)GlcNAc", "in_short": "as §1"}, "[34]": {"target": "Gal(a1-4)Gal(b1-4)Glc", "in_short": "as §1"}, "[35]": {"target": "Gal(a1-4)Gal(b1-4)GlcNAc", "in_short": "as §1"}, "[36]": {"target": "Gal(a1-4)Gal(b1-4)GlcNAc(b1-2)Man(a1-3)[Gal(a1-4)Gal(b1-4)GlcNAc(b1-2)Man(a1-6)]Man(b1-4)GlcNAc(b1-4)GlcNAc", "in_short": "as §1"}, "[37]": {"target": "Gal(a1-4)Gal(b1-4)GlcNAc(b1-3)Gal(b1-4)Glc", "in_short": "as §1"}, "[38]": {"target": "Gal(a1-4)GlcNAc", "in_short": "as §1"}},
  "note": "The list shows a part of the results.",
  "data": [
    {"binder": "Clec12b (Mus musculus), Q149M0 (protein) MSDEVTYATLMLQDSARVRGNQDGNNLRKEGHPAQSSLWRGAALSLMTLCLVLVTGLVTLATMFLQVSNDINSDSEKLSQLQKSIHPQQDNLSESLNSSRKSLTEESLQSQISALLERQEQMATKLCKEFLIHASDHKCNPCPKTWQWYGNSCYYFSINEEKSWSDSRKDCIDKNATLVKIDSTEERDLLQSQLSLTFSFFWLGLSWNSSGRNWLWEDGSFPPPTLFSDKELASFNGSRDCAYFERGNIYASRCSAEIPWICEKTASLVKTEDLD", "values": [
      {"measurement": "glycan array binding signal (z-score)", "setting": "[1]", "result": -0.775},
      {"measurement": "glycan array binding signal (z-score)", "setting": "[2]", "result": -0.443},
      {"measurement": "glycan array binding signal (z-score)", "setting": "[3]", "result": -0.759},
      {"measurement": "glycan array binding signal (z-score)", "setting": "[4]", "result": -0.033},
      {"measurement": "glycan array binding signal (z-score)", "setting": "[5]", "result": 2.44},
      {"measurement": "glycan array binding signal (z-score)", "setting": "[6]", "result": -0.766},
      {"measurement": "glycan array binding signal (z-score)", "setting": "[7]", "result": 0.067},
      {"measurement": "glycan array binding signal (z-score)", "setting": "[8]", "result": -0.303},
      {"measurement": "glycan array binding signal (z-score)", "setting": "[9]", "result": -0.633},
      {"measurement": "glycan array binding signal (z-score)", "setting": "[10]", "result": -0.365},
      {"measurement": "glycan array binding signal (z-score)", "setting": "[11]", "result": -0.607},
      {"measurement": "glycan array binding signal (z-score)", "setting": "[12]", "result": -0.487},
      {"measurement": "glycan array binding signal (z-score)", "setting": "[13]", "result": -0.43},
      {"measurement": "glycan array binding signal (z-score)", "setting": "[14]", "result": -0.258},
      {"measurement": "glycan array binding signal (z-score)", "setting": "[15]", "result": 0.302},
      {"measurement": "glycan array binding signal (z-score)", "setting": "[16]", "result": 0.181},
      {"measurement": "glycan array binding signal (z-score)", "setting": "[17]", "result": 5.35},
      {"measurement": "glycan array binding signal (z-score)", "setting": "[18]", "result": -0.666},
      {"measurement": "glycan array binding signal (z-score)", "setting": "[19]", "result": 2.5},
      {"measurement": "glycan array binding signal (z-score)", "setting": "[20]", "result": -0.032},
      {"measurement": "glycan array binding signal (z-score)", "setting": "[21]", "result": -0.324},
      {"measurement": "glycan array binding signal (z-score)", "setting": "[22]", "result": 0.289},
      {"measurement": "glycan array binding signal (z-score)", "setting": "[23]", "result": -0.491},
      {"measurement": "glycan array binding signal (z-score)", "setting": "[24]", "result": 0.53},
      {"measurement": "glycan array binding signal (z-score)", "setting": "[25]", "result": 0.744},
      {"measurement": "glycan array binding signal (z-score)", "setting": "[26]", "result": 0.311},
      {"measurement": "glycan array binding signal (z-score)", "setting": "[27]", "result": -0.657},
      {"measurement": "glycan array binding signal (z-score)", "setting": "[28]", "result": -0.003},
      {"measurement": "glycan array binding signal (z-score)", "setting": "[29]", "result": 0.899},
      {"measurement": "glycan array binding signal (z-score)", "setting": "[30]", "result": 0.852},
      {"measurement": "glycan array binding signal (z-score)", "setting": "[31]", "result": 0.456},
      {"measurement": "glycan array binding signal (z-score)", "setting": "[32]", "result": -0.196},
      {"measurement": "glycan array binding signal (z-score)", "setting": "[33]", "result": 0.728},
      {"measurement": "glycan array binding signal (z-score)", "setting": "[34]", "result": 0.522},
      {"measurement": "glycan array binding signal (z-score)", "setting": "[35]", "result": -0.217},
      {"measurement": "glycan array binding signal (z-score)", "setting": "[36]", "result": 0.57},
      {"measurement": "glycan array binding signal (z-score)", "setting": "[37]", "result": -0.748},
      {"measurement": "glycan array binding signal (z-score)", "setting": "[38]", "result": -0.506}
    ]}
  ]
}
